PubChem BioAssay AID1259254, NCATS | 2017
Test: 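Genome-wide screen for genes that prevent DNA re-replication in cancer cells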 (primary screen). Cells: human HCT116 colorectal cancer cells. Reagent: single siRNA against human genes. Duration: 3 days. Read-out: 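Nuclei stained with Hoechst and imaged; cell-cycle phase assigned by DNA content; G2 share scaled per plate, non-targeting siRNA 0%, GMNN siRNA 100%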. Direction: G2 robust z-score: higher = more G2 cells, more excess DNA replication. Active means: 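An siRNA counts as active if its G2 robust z-score lies at least 5 MADs above the screen median; here such calls match roughly 38% of GMNN control or more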.
In all, the deposit lists about 59,000 reagents; shown is a random part of them. In the full data, about 1,550 (2.6%) are marked active. 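G2 share is only a proxy for re-replication; each gene was hit by three separate siRNAs, and active genes were retested.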 Unmarked entries are inactive. Further read-outs or replicates are left out here. Not stated in the record: the amount of reagent.

target | PubChem SID | G2 robust z-score
VOPP1 | SID160735004 | -0.308
VOPP1 | SID160750792 | -0.0764
VOPP1 | SID160750793 | -0.908
ADAMDEC1 | SID160738680 | -0.826
ADAMDEC1 | SID160738681 | 3
ADAMDEC1 | SID160738682 | 0.153
RFFL | SID160755601 | -0.47
RFFL | SID160755602 | 5.49 (active)
RFFL | SID160755603 | -0.737
GPR82 | SID160738535 | -0.4
GPR82 | SID160738536 | -0.0487
GPR82 | SID160738537 | -0.683
SAA2 | SID160716316 | 0.645
SAA2 | SID160716317 | 2.23
SAA2 | SID160724060 | -0.402
DLG3 | SID160754608 | 2.94
DLG3 | SID160754618 | -0.649
DLG3 | SID160754628 | -0.915
LDHC | SID160776563 | -1.08
LDHC | SID160776564 | -0.531
LDHC | SID160776565 | 0.267
ASB3 | SID160740139 | 1.61
ASB3 | SID160740140 | -0.183
ASB3 | SID160740141 | 4.21

In a second layout: entries from further up
target	PubChem SID	G2 robust z-score
RFFL	SID160755602	5.49 (active)
RFFL	SID160755603	-0.737
GPR82	SID160738535	-0.4
GPR82	SID160738536	-0.0487
GPR82	SID160738537	-0.683
SAA2	SID160716316	0.645
SAA2	SID160716317	2.23
SAA2	SID160724060	-0.402
DLG3	SID160754608	2.94
DLG3	SID160754618	-0.649
DLG3	SID160754628	-0.915

Further records follow:
target | PubChem SID | G2 robust z-score
PML | SID160714531 | 1.1
PML | SID160723985 | 5.14 (active)
PML | SID160723986 | -1.19
PIGM | SID160754453 | 2.86
PIGM | SID160754454 | 0.413
PIGM | SID160754455 | 1.37
OR2H2 | SID160719492 | 0.138
OR2H2 | SID160719493 | -0.206
OR2H2 | SID160719494 | -0.6
POLM | SID160738801 | -0.326
POLM | SID160738802 | 5.06 (active)
POLM | SID160738803 | -1.12
ORAI3 | SID160754438 | 2.28
ORAI3 | SID160754439 | -0.541
ORAI3 | SID160754441 | 0.477
NOVA2 | SID160778169 | 0.896
NOVA2 | SID160778170 | -0.468
NOVA2 | SID160778171 | -0.631
STAM2 | SID160727750 | -0.216
STAM2 | SID160727756 | -0.073
STAM2 | SID160727760 | 0.838
PNPLA6 | SID160729489 | -0.641
PNPLA6 | SID160729490 | -0.528
PNPLA6 | SID160729491 | -0.781
MACC1 | SID160764898 | -0.074
MACC1 | SID160764899 | 0.528
MACC1 | SID160764900 | 0.596
KCTD12 | SID160755162 | -0.0132
KCTD12 | SID160755163 | 2.28
KCTD12 | SID160755164 | -0.389
LEFTY2 | SID160717994 | 0.448
LEFTY2 | SID160717995 | -0.642
LEFTY2 | SID160717996 | 0.615
TLE1 | SID160718103 | -0.452
TLE1 | SID160718104 | -0.796
TLE1 | SID160718105 | 0.0637
VWA7 | SID160750505 | 5.62 (active)
VWA7 | SID160750506 | -0.914
VWA7 | SID160750507 | 4.18
OR9A4 | SID160756928 | -0.0761
OR9A4 | SID160756929 | 0.983
OR9A4 | SID160756930 | 0.388
PSMD10 | SID160715255 | 0.433
PSMD10 | SID160715256 | -0.408
PSMD10 | SID160715257 | 0.603
